PubChem BioAssay AID504808, Drosophila RNAi Screening Center, 2011
Aim: 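Chromatin factors that keep E2F targets switched off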 (primary screen). Cells: Drosophila S2 cells. Knock-down reagent: long dsRNA against Drosophila genes. Detection: 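Firefly luciferase driven by E2F sites, normalised to Renilla luciferase on the same minimal promoter, measured by plate reader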. Scale: E2F firefly: higher = more E2F reporter activity; Renilla normaliser: higher = more normaliser reporter signal. Active means: 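a knock-down counted as active when the firefly/Renilla E2F signal rose above 50%, a threshold chosen arbitrarily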.
In all, the deposit lists about 21,000 reagents; shown is a random part of those with a known target gene and a result. Over the whole deposit, 18 (0.084%) were called active. 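Raw counts without plate normalisation, one of two replicates; the ratio scores behind the calls were not deposited.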 The numbers tell different reagents against one gene apart. A plus sign joins genes that one reagent is predicted to hit. Not given: the amount of reagent, the time to read-out.

For Grd, what does the deposit list?
E2F firefly, rep 1: 1.63e5; Renilla normaliser, rep 1: 8075; call: inactive

Which result is listed for CG32727?
E2F firefly, rep 1: 77597; Renilla normaliser, rep 1: 2636; call: inactive

Which result is listed for CG42496 + Ppcdc?
E2F firefly, rep 1: 83667; Renilla normaliser, rep 1: 3471; call: inactive

How did the screen score osy #1?
E2F firefly, rep 1: 1.09e5; Renilla normaliser, rep 1: 5151; call: inactive

Which result is listed for osy #2?
E2F firefly, rep 1: 85081; Renilla normaliser, rep 1: 4528; call: inactive

How did the screen score osy #3?
E2F firefly, rep 1: 1700; Renilla normaliser, rep 1: 964; call: inactive

With Tango6, what was measured?
E2F firefly, rep 1: 64005; Renilla normaliser, rep 1: 208; call: inactive

How did the screen score MTA1-like?
E2F firefly, rep 1: 1.31e5; Renilla normaliser, rep 1: 6209; call: inactive

What did the screen give for Arl4?
E2F firefly, rep 1: 42077; Renilla normaliser, rep 1: 3153; call: inactive

How did the screen score Vps16A?
E2F firefly, rep 1: 1.15e5; Renilla normaliser, rep 1: 5485; call: inactive

How did the screen score CG10947?
E2F firefly, rep 1: 81176; Renilla normaliser, rep 1: 3166; call: inactive

Which result is listed for Tsp3A?
E2F firefly, rep 1: 1.30e5; Renilla normaliser, rep 1: 5245; call: inactive

Which result is listed for yki?
E2F firefly, rep 1: 85695; Renilla normaliser, rep 1: 3838; call: inactive

What did the screen give for ATP8 (retired record)?
E2F firefly, rep 1: 1.39e5; Renilla normaliser, rep 1: 6650; call: inactive

What did the screen give for arm?
E2F firefly, rep 1: 1835; Renilla normaliser, rep 1: 1144; call: inactive

Which result is listed for CG5535?
E2F firefly, rep 1: 68148; Renilla normaliser, rep 1: 3426; call: inactive

For jet, how do the results read?
E2F firefly, rep 1: 1.01e5; Renilla normaliser, rep 1: 4210; call: inactive

What is on record for tal-1A + tal-2A + tal-AA + 1 more?
E2F firefly, rep 1: 78645; Renilla normaliser, rep 1: 2561; call: inactive

Which result is listed for Phlpp?
E2F firefly, rep 1: 99838; Renilla normaliser, rep 1: 4386; call: inactive

Quoted from the listing, 3 entries:
Grd | E2F firefly, rep 1: 1.63e5; Renilla normaliser, rep 1: 8075; call: inactive
CG32727 | E2F firefly, rep 1: 77597; Renilla normaliser, rep 1: 2636; call: inactive
CG42496 + Ppcdc | E2F firefly, rep 1: 83667; Renilla normaliser, rep 1: 3471; call: inactive
